Paper PMC4150762, “The DEAD-box helicase Ded1 from yeast is an mRNP cap-associated protein that shuttles between the cytoplasm and nucleus” (Nucleic Acids Research, 2014)

Chains of the proteins cited; added tags and fusions are not shown.
UniProt P06634: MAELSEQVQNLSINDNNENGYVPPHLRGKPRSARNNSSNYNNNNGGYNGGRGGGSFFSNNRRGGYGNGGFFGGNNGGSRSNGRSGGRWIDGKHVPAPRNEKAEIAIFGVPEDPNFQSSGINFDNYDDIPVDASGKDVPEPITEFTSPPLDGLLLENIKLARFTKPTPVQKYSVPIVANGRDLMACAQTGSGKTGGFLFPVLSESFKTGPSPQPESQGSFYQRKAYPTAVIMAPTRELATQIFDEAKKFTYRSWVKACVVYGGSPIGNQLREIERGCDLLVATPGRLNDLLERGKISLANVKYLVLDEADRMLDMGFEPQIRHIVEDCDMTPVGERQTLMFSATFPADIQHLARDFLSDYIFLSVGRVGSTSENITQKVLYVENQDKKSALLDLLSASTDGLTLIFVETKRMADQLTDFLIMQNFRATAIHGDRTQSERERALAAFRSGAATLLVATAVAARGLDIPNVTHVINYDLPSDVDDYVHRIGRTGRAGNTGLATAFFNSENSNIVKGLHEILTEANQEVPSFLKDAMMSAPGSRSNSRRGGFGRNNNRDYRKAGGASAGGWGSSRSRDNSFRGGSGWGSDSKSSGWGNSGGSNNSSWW
UniProt P04147: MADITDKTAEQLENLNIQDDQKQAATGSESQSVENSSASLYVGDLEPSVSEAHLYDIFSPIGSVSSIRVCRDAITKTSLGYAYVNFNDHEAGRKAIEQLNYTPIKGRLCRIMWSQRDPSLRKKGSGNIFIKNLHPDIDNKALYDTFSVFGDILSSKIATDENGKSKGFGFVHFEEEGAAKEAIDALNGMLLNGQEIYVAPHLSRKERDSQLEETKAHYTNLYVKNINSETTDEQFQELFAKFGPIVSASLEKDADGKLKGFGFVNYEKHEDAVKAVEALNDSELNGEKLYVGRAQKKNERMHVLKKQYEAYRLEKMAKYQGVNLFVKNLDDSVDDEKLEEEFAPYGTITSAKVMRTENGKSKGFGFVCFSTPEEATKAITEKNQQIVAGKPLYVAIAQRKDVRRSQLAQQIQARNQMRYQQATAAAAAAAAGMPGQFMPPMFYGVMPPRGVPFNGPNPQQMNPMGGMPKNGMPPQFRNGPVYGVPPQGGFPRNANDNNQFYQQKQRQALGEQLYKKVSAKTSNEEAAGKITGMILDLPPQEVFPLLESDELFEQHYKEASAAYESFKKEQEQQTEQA

B1: eIF4E with an amino-terminal His6 tag (natural protein, S. cerevisiae, UniProt P07260 1-213, looked up)
chain: MSVEEVSKKFEENVSVDDTTATPKTVLSDSAHFDVKHPLNTKWTLWYTKPAVDKSESWSDLLRPVTSFQTVEEFWAIIQNIPEPHELPLKSDYHVFRNDVRPEWEDEANAKGGKWSFQLRGKGADIDELWLRTLLAVIGETIDEDDSQINGVVLSIRKGGNKFALWTKSEDKEPLLRIGGKFKQVLKLTDDGHLEFFPHSSANGRHPQPSITL
notes: eIF4E (CDC33) of S. cerevisiae cloned into the NdeI-BamHI sites of pET15b; also called CDC33; source: E. coli (pET15b), purified on nickel-agarose

Tests used:
[1] = molecular target: Ded1 (S. cerevisiae (endogenous in BY4742)) (UniProt P06634); assay: affinity purification with mass spectrometry; selected sucrose gradient fractions (4, 6, 7) of yeast extract purified by Ded1-IgG Sepharose pull-down, nanoLC-MS/MS
[2] = molecular target: Ded1 (S. cerevisiae (endogenous in BY4742)), P06634; assay: as above; conditions: remark: other sources report otherwise

Molecule	binding [1]	binding [2]
Pab1 (from UniProt P04147 1-577)	binds	
B1		binds

Results are given in words; binding and its absence hold for the method and conditions named. In cells and extracts the contact can be indirect. Here binding means that the protein was enriched with, or labelled near, the bait; the list need not be complete.
